No constants are given. Whether binding was seen depends on the method and setting. In cells and extracts the contact can be indirect. Some entries that bind do so weakly or less than the wild type.
Assays:
[1] = biological target: HA-tagged H1b expressed in 293 cells (human) (UniProt P10412); assay: co-immunoprecipitation with anti-HA resin from 293 cell extracts
[2] = biological target: purified recombinant HA-H1b (expressed in E. coli) (human) (UniProt P10412); assay: in vitro pull-down, western blot

Protein sequences, listed by entry. Tags and fused reporters are not part of them. Lines headed by an entry give the natural chain unless they say otherwise; changes in a name come on top. Chains listed by the source or under a name are the forms on record and can include a tag or linker. Residues count along the entry.
UniProt P10412: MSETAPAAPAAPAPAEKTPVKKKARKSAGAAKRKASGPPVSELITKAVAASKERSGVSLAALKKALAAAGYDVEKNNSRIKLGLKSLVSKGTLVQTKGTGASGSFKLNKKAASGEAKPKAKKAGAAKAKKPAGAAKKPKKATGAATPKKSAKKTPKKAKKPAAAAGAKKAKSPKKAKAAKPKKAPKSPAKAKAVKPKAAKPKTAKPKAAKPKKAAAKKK
HA-tagged H1b expressed in 293 cells: residues 2-219 of P10412
UniProt Q96EB6: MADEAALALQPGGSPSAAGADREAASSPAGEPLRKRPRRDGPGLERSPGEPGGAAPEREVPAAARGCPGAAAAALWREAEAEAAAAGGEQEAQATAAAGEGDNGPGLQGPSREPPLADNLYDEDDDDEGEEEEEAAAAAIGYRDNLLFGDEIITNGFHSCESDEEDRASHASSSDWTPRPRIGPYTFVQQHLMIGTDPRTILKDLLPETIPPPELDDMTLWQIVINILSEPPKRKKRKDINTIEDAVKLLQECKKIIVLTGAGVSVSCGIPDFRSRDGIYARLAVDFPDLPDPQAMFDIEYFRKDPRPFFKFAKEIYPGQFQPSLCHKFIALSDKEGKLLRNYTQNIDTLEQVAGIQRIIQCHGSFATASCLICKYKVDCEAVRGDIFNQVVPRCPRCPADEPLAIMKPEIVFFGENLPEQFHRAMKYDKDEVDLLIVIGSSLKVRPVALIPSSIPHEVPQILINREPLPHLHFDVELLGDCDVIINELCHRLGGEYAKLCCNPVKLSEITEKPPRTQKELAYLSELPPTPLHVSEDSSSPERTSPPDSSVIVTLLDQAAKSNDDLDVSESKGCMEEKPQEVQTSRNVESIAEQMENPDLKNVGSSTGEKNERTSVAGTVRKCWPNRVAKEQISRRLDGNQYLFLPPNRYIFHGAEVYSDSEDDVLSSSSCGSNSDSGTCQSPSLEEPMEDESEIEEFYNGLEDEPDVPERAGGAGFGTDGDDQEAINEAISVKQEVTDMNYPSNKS

Substance	binding [1]	binding [2]
endogenous SirT1 (from UniProt Q96EB6 2-747) (enzyme)	binds	–
fusion protein containing the SirT1-specific N-terminal domain fused to FLAG (SirT1 1-268) (from UniProt Q96EB6 1-268)	–	binds

From patent US20070065890A1, “Method for promoting formation of facultative heterochromatin” (priority 2005, published 2007)
